These results are taken from PubChem BioAssay AID328 (DTP/NCI, 2004).

The list is a part of this screen's results and no random one: its compounds were picked by chemical class. Other doses and runs of a compound may be missing. T/C is the treated group as % of the vehicle group. Some doses have a count of surviving animals in place of a T/C: the source holds a T/C of zero for them, seemingly a mark for toxic or unscored doses. Some survivor counts are full or nearly so, which does not show that the dose was tolerated: the source hardly ever lists a survival T/C far under the control, and the zero likely stands for such cases as well. Counts of survivors are from the toxicity check (mostly the fifth day) where no day follows; animals may have died later. Schedules are NCI's codes, read here as Q, the interval in days (D) or hours (H), X, the number of doses. Where survival is the endpoint, this PubChem deposit counts one and a half times the control or more as active, and values a quarter to a half above the control carry no call in these data; other NCI protocols may use other cut-offs. Some T/C values are followed by the survivors on the day toxicity was checked, most often the fifth; where neither a count nor a note follows, no animal had died by that day. Some entries were tested several times; the results are listed from low to high.

The subject of this experiment is BDF1 mice, P388 leukemia ip, median survival T/C. As to the kind of experiment: NCI In Vivo Anticancer Drug Screen. Data for tumor model P388 Leukemia (intraperitoneal) in B6D2F1 (BDF1) mice. The note with it: T/C endpoint: median survival time, higher T/C = longer survival. The protocol:
The antitumor activity of compounds was measured in mice bearing transplantable tumors. Survival or tumor size were measured and the results are expressed as the measurement made in the treated group (T) divided by the measurement made in the vehicle treated control group (C). The tumor model used in this assay is P388 Leukemia (intraperitoneal) in B6D2F1 (BDF1) mice

Where [1] appears, read: dose: 6.25 mg/kg/injection, schedule: Q01DX009 (ip), vehicle: saline with Tween-80.
Setting [2] is: dose: 12.5 mg/kg/injection, schedule: Q01DX009 (ip), vehicle: saline with Tween-80.
Setting [3] is: dose: 25.0 mg/kg/injection, schedule: Q01DX009 (ip), vehicle: saline with Tween-80.
[4] abbreviates: dose: 25.0 mg/kg/injection, schedule: Q04DX003 (ip), vehicle: saline with Tween-80.
Where [5] appears, read: dose: 50.0 mg/kg/injection, schedule: Q01DX009 (ip), vehicle: saline with Tween-80.
The mark [6] stands for this setting: dose: 100.0 mg/kg/injection, schedule: Q01DX009 (ip), vehicle: saline with Tween-80.
[7] abbreviates: dose: 100.0 mg/kg/injection, schedule: Q01DX009 (ip), vehicle: saline.
Setting [8] is: dose: 200.0 mg/kg/injection, schedule: Q04DX003 (ip), vehicle: saline.

As to `CC(Cl)CN(CC(C)Cl)C(=O)OCC(N)C(=O)O` (stereo not drawn), the T/C is, setting by setting: (dose: 12.5 mg/kg/injection, schedule: Q01DX010 (ip), vehicle: water) 100 % of control; (dose: 25.0 mg/kg/injection, schedule: Q01DX010 (ip), vehicle: water) 100 % of control; (dose: 50.0 mg/kg/injection, schedule: Q01DX010 (ip), vehicle: water) 100 % of control; (dose: 100.0 mg/kg/injection, schedule: Q01DX010 (ip), vehicle: water) 100 % of control; (dose: 200.0 mg/kg/injection, schedule: Q01DX010 (ip), vehicle: water) 100 % of control. For the same compound, the survivor count (dose: 400.0 mg/kg/injection, schedule: Q01DX010 (ip), vehicle: water) is reported as 0 of 10.

For `NC(=O)CCCc1ccc(N(CCCl)CCCl)cc1`, the T/C runs as follows: (dose: 0.37 mg/kg/injection, schedule: Q01DX009 (ip), vehicle: saline with Tween-80) 92 % of control [5 of 6 alive]; (dose: 0.75 mg/kg/injection, schedule: Q01DX009 (ip), vehicle: saline with Tween-80) 115 % of control; (dose: 0.92 mg/kg/injection, schedule: Q04DX003 (ip), vehicle: saline with Tween-80) 90 % of control; (dose: 1.3 mg/kg/injection, schedule: Q04DX003 (ip), vehicle: saline with Tween-80) 90 % of control; (dose: 1.5 mg/kg/injection, schedule: Q01DX009 (ip), vehicle: saline with Tween-80) 123 and 145 % of control; (dose: 2.0 mg/kg/injection, schedule: Q04DX003 (ip), vehicle: saline with Tween-80) 104 % of control. In addition, the T/C by setting is: (dose: 3.0 mg/kg/injection, schedule: Q01DX009 (ip), vehicle: saline with Tween-80) 154 % of control; (dose: 3.0 mg/kg/injection, schedule: Q04DX003 (ip), vehicle: saline with Tween-80) 116 % of control; (dose: 4.4 mg/kg/injection, schedule: Q04DX003 (ip), vehicle: saline with Tween-80) 125 and 150 % of control; (dose: 4.8 mg/kg/injection, schedule: Q04DX003 (ip), vehicle: saline with Tween-80) 186 % of control; (dose: 6.0 mg/kg/injection, schedule: Q01DX009 (ip), vehicle: saline with Tween-80) 250 % of control; under setting [1], 203 % of control. Further, the T/C was 172 % of control (dose: 6.7 mg/kg/injection, schedule: Q04DX003 (ip), vehicle: saline with Tween-80); 186 % of control (dose: 7.2 mg/kg/injection, schedule: Q04DX003 (ip), vehicle: saline with Tween-80); 222 % of control (dose: 10.0 mg/kg/injection, schedule: Q04DX003 (ip), vehicle: saline with Tween-80); 200 and 209 % of control (dose: 11.0 mg/kg/injection, schedule: Q04DX003 (ip), vehicle: saline with Tween-80); 176 % of control under setting [2]; 245 % of control (dose: 16.0 mg/kg/injection, schedule: Q04DX003 (ip), vehicle: saline with Tween-80). The T/C is 233 % of control (dose: 16.5 mg/kg/injection, schedule: Q04DX003 (ip), vehicle: saline with Tween-80); 168 % of control under setting [4]; 222 % of control (dose: 35.0 mg/kg/injection, schedule: Q04DX003 (ip), vehicle: saline with Tween-80). For the same compound, the survivor count reads like this: under setting [3], 5 of 6; under setting [4], 6 of 6; (dose: 37.5 mg/kg/injection, schedule: Q04DX003 (ip), vehicle: saline with Tween-80) 6 of 6.

On to `CC1(C)CN1P(=O)(Nc1ccccn1)N1CC1(C)C` (stereo not drawn), for which the T/C runs as follows: (dose: 100.0 mg/kg/injection, schedule: Q01DX009 (ip), vehicle: saline sonified) 125 % of control; (dose: 100.0 mg/kg/injection, schedule: Q04DX003 (ip), vehicle: saline sonified) 108 % of control; (dose: 176.0 mg/kg/injection, schedule: Q04DX003 (ip), vehicle: saline sonified) 127 % of control; (dose: 200.0 mg/kg/injection, schedule: Q01DX009 (ip), vehicle: saline sonified) 155 % of control; (dose: 200.0 mg/kg/injection, schedule: Q04DX003 (ip), vehicle: saline sonified) 104 % of control; (dose: 264.0 mg/kg/injection, schedule: Q04DX003 (ip), vehicle: saline sonified) 122 % of control. The T/C by setting is: (dose: 400.0 mg/kg/injection, schedule: Q01DX009 (ip), vehicle: saline sonified) 175 % of control; (dose: 400.0 mg/kg/injection, schedule: Q04DX003 (ip), vehicle: saline sonified) 138 [5 of 6 alive] and 170 % of control [5 of 6 alive].

On to `O=[N+]([O-])c1cccc2cn([N+](=O)[O-])nc12`, for which the T/C (dose: 3.12 mg/kg/injection, schedule: Q01DX009 (ip), vehicle: saline with Tween-80) was 99 % of control [5 of 6 alive]; the T/C under setting [1] is 101 % of control; the T/C under setting [2] was 108 % of control. Moreover, the survivor count under setting [5] is on record as 0 of 6; the survivor count under setting [6] is reported as 0 of 6; the survivor count (dose: 200.0 mg/kg/injection, schedule: Q01DX009 (ip), vehicle: saline with Tween-80) was 0 of 6.

Regarding `COc1ccc(O)c2c(=O)c3c(OC)cc4c(c3oc12)[C@@H]1C=CO[C@@H]1O4`, the T/C runs as follows: under setting [1], 156 % of control; under setting [2], 186 % of control; under setting [3], 199 % of control; under setting [5], 245 % of control; under setting [6], 100 % of control.

As to `CCOC(=O)C(CCSC)NC(=O)OCCNCCCl` (stereo not drawn), the T/C was 127 % of control (dose: 20.0 mg/kg/injection, schedule: Q04DX003 (ip), vehicle: saline); 120 % of control under setting [3]; 185 % of control (dose: 25.0 mg/kg/injection, schedule: Q01DX009 (ip), vehicle: saline); 127 % of control (dose: 25.0 mg/kg/injection, schedule: Q04DX003 (ip), vehicle: saline); 140 % of control (dose: 30.0 mg/kg/injection, schedule: Q04DX003 (ip), vehicle: saline); 142 % of control (dose: 33.0 mg/kg/injection, schedule: Q01DX009 (ip), vehicle: saline). Besides, the T/C runs as follows: (dose: 45.0 mg/kg/injection, schedule: Q04DX003 (ip), vehicle: saline) 150 % of control; under setting [5], 129 % of control; (dose: 50.0 mg/kg/injection, schedule: Q01DX009 (ip), vehicle: saline) 142 and 196 % of control; (dose: 50.0 mg/kg/injection, schedule: Q04DX003 (ip), vehicle: saline) 136 % of control; (dose: 66.0 mg/kg/injection, schedule: Q01DX009 (ip), vehicle: saline with Tween-80) 161 % of control; (dose: 66.0 mg/kg/injection, schedule: Q01DX009 (ip), vehicle: saline) 150 % of control. Further, the T/C by setting is: (dose: 66.0 mg/kg/injection, schedule: Q04DX003 (ip), vehicle: saline) 150 % of control; (dose: 75.0 mg/kg/injection, schedule: Q01DX009 (ip), vehicle: saline) 92 % of control; under setting [6], 119 and 141 % of control; under setting [7], 154 % of control; (dose: 100.0 mg/kg/injection, schedule: Q04DX003 (ip), vehicle: saline) 154, 159 [5 of 6 alive], 183 % of control; (dose: 150.0 mg/kg/injection, schedule: Q01DX009 (ip), vehicle: saline) 172 % of control. Also, the T/C is, setting by setting: (dose: 150.0 mg/kg/injection, schedule: Q04DX003 (ip), vehicle: saline) 122 % of control; under setting [8], 200 % of control. For the same compound, the survivor count is given as 3 of 6 under setting [7]; 2 of 6 (dose: 150.0 mg/kg/injection, schedule: Q01DX009 (ip), vehicle: saline with Tween-80); 3 of 6 under setting [8]; 0 of 6 (dose: 400.0 mg/kg/injection, schedule: Q04DX003 (ip), vehicle: saline).
